The other results are listed elsewhere or left out. Most values come without repeats; read them as rough.

For this experiment, the system named is Saccharomyces cerevisiae BY4743. Kind of experiment: growth (OD600) with compound + IPBC relative to untreated control; higher = less growth inhibition. The note with it: compound concentration: 133 uM; IPBC concentration: 0.5 ug/ml; 20 h. How it is done:
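NMCCC compounds (133 uM) combined with IPBC (0.5 ug/ml) against Saccharomyces cerevisiae BY4743 in YPD, 96-well plates. Growth was read as OD600 at 20 h and expressed as % of the untreated control. Single pass.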
On to `Cc1noc(C)c1CSCC(=O)OCC(=O)N1CCN(c2ccccc2)CC1` + CCCCNC(=O)OCC#CI [3-iodo-2-propynyl butylcarbamate (IPBC)], for which the growth is 109%.

As to `Cc1ccc(C(=O)c2sc(Nc3ccccc3)nc2N)c(C)c1` + CCCCNC(=O)OCC#CI [3-iodo-2-propynyl butylcarbamate (IPBC)], the growth is 96.5%.

Turning to `COC(=O)CNC(=O)CSc1nc(C2CC2)n(-c2ccccc2)n1` + CCCCNC(=O)OCC#CI [3-iodo-2-propynyl butylcarbamate (IPBC)], the growth worked out at 96.5%.

Take `CCN1CCN(S(=O)(=O)c2ccc3c(c2)NC(=O)C(C)CS3)CC1` (centres undefined) + CCCCNC(=O)OCC#CI [3-iodo-2-propynyl butylcarbamate (IPBC)]: the growth was 101%.

As for `CN(CCO)c1nc2c(c(=O)n(Cc3ccc(Cl)cc3)c(=O)n2C)n1C` + CCCCNC(=O)OCC#CI [3-iodo-2-propynyl butylcarbamate (IPBC)], the growth stood at 108%.

Turning to `CCC1=CC=C(C=C1)C(CN[S](=O)(=O)\C2=C\C3=CC=CC=C3CC2)N(C)C` (centres undefined) + CCCCNC(=O)OCC#CI [3-iodo-2-propynyl butylcarbamate (IPBC)], the growth was 101%.

Regarding `Cc1cc(N2CCCC2)ccc1NC(=O)C(NS(=O)(=O)/C=C/c1ccccc1)C(C)C` (centres undefined) + CCCCNC(=O)OCC#CI [3-iodo-2-propynyl butylcarbamate (IPBC)], the growth stood at 113%.

Regarding `COCCN1\C=C/C2=C(OCC(=O)NC3=CC=C(Br)C=C3)C=CC=C2C1=O` + CCCCNC(=O)OCC#CI [3-iodo-2-propynyl butylcarbamate (IPBC)], the growth was found to be 86%.

As for `Cc1ccc2c(c1)NC(C(C)C)NS2(=O)=O` (centres undefined) + CCCCNC(=O)OCC#CI [3-iodo-2-propynyl butylcarbamate (IPBC)], the growth came out at 83.3%.

As to `CCOc1cc(C)nn1-c1ccccc1` + CCCCNC(=O)OCC#CI [3-iodo-2-propynyl butylcarbamate (IPBC)], the growth was found to be 92.8%.

Turning to `CSc1ccc(CCNC(=O)CN(C)c2nnc(N3CCCC3=O)s2)cc1` + CCCCNC(=O)OCC#CI [3-iodo-2-propynyl butylcarbamate (IPBC)], the growth was determined as 114%.

Turning to `COC(=O)c1sc2nc(C)nc(N(C)Cc3cccnc3)c2c1C` + CCCCNC(=O)OCC#CI [3-iodo-2-propynyl butylcarbamate (IPBC)], the growth is 105%.

Regarding `Cc1sc2nc(CSC(C)C(=O)OCC(=O)N(C)C)nc(O)c2c1C` (centres undefined) + CCCCNC(=O)OCC#CI [3-iodo-2-propynyl butylcarbamate (IPBC)], the growth was found to be 92.7%.

For `Cc1ccc2oc(SCC(=O)NC(C)(C)C)nc2n1` + CCCCNC(=O)OCC#CI [3-iodo-2-propynyl butylcarbamate (IPBC)], the growth turned out to be 104%.

For `COc1cc(Br)c(CC(=O)OCC(=O)N2CCNC2=O)cc1OC` + CCCCNC(=O)OCC#CI [3-iodo-2-propynyl butylcarbamate (IPBC)], the growth came out at 100%.

For the compound `Cc1noc(C)c1S(=O)(=O)NCCC(=O)N(C)Cc1ccc2c(c1)OCCO2` + CCCCNC(=O)OCC#CI [3-iodo-2-propynyl butylcarbamate (IPBC)], the growth amounted to 104%.

For the compound `O=C(CNC(=O)c1ccc2ncsc2c1)OCc1ccccc1` + CCCCNC(=O)OCC#CI [3-iodo-2-propynyl butylcarbamate (IPBC)], the growth is 81.7%.

For `CC(C)CCNC(=O)C(Cc1ccccc1)NS(=O)(=O)c1ccc2c(c1)c(=O)n(C)c(=O)n2C` (centres undefined) + CCCCNC(=O)OCC#CI [3-iodo-2-propynyl butylcarbamate (IPBC)], the growth came out at 107%.

With `CCC1Sc2ccc(S(=O)(=O)CCC(=O)Nc3ccc(C(C)=O)cc3)cc2NC1=O` (centres undefined) + CCCCNC(=O)OCC#CI [3-iodo-2-propynyl butylcarbamate (IPBC)], the growth is 106%.

Consider `Cc1ccc(C)c(OCC(=O)N2CCc3ccccc3C2)c1` + CCCCNC(=O)OCC#CI [3-iodo-2-propynyl butylcarbamate (IPBC)], for which the growth turned out to be 92.1%.

For the compound `CCN(CC)c1ccc2nnc(CCC(=O)NCc3ccccn3)n2n1` + CCCCNC(=O)OCC#CI [3-iodo-2-propynyl butylcarbamate (IPBC)], the growth came to 94.3%.

`CC\C1=N\N(CC(O)=O)C(=O)C2=CC3=C(C=CS3)[N]12` + CCCCNC(=O)OCC#CI [3-iodo-2-propynyl butylcarbamate (IPBC)]: the growth is 97.1%.

Regarding `CC(C)(C)c1csc(NC(=O)c2csc(-c3ccsc3)n2)n1` + CCCCNC(=O)OCC#CI [3-iodo-2-propynyl butylcarbamate (IPBC)], the growth was found to be 90.5%.

In the case of `CCOC(=O)C(Cc1ccccc1)NS(=O)(=O)c1ccc(NC(C)=O)cc1` (centres undefined) + CCCCNC(=O)OCC#CI [3-iodo-2-propynyl butylcarbamate (IPBC)], the growth amounted to 90.4%.

Regarding `COC(=O)c1ccc(C(=O)N2CCN(C(=O)c3ccc(OC)cc3)CC2)nc1` + CCCCNC(=O)OCC#CI [3-iodo-2-propynyl butylcarbamate (IPBC)], the growth was 109%.

Turning to `COc1ccc(N(CC(=O)NCC2CCCO2)S(=O)(=O)c2c(C)noc2C)cc1` (centres undefined) + CCCCNC(=O)OCC#CI [3-iodo-2-propynyl butylcarbamate (IPBC)], the growth was 91.9%.

For the compound `Cc1ccc(CNC(=O)Cc2cn3ccsc3n2)n1C` + CCCCNC(=O)OCC#CI [3-iodo-2-propynyl butylcarbamate (IPBC)], the growth turned out to be 100%.

For the compound `CC(=O)c1c(C)[nH]c(C(=O)C(C)NCc2ccccc2CN2CCCC2)c1C` (centres undefined) + CCCCNC(=O)OCC#CI [3-iodo-2-propynyl butylcarbamate (IPBC)], the growth was found to be 96%.

Turning to `COC(=O)CCCC(=O)NC(c1ccc(Cl)cc1)c1nnc(-c2ccccc2)o1` (centres undefined) + CCCCNC(=O)OCC#CI [3-iodo-2-propynyl butylcarbamate (IPBC)], the growth was 94.9%.

In the case of `CC(OCc1ccccc1)C(=O)Nc1cccc2c[nH]nc12` (centres undefined) + CCCCNC(=O)OCC#CI [3-iodo-2-propynyl butylcarbamate (IPBC)], the growth turned out to be 85.3%.

With `CCC(=O)Nc1nc2ccc(CCC(=O)Nc3c(Cl)cc(OC)cc3OC)cc2s1` + CCCCNC(=O)OCC#CI [3-iodo-2-propynyl butylcarbamate (IPBC)], the growth was found to be 92.6%.

Consider `CCc1nnc(NC(=O)CC2(CC(=O)N3CCOCC3)CCCC2)s1` + CCCCNC(=O)OCC#CI [3-iodo-2-propynyl butylcarbamate (IPBC)], for which the growth stood at 104%.

Regarding `CC(C)(C)NS(=O)(=O)c1ccc(C(=O)NCC(=O)N2CCc3ccccc32)cc1` + CCCCNC(=O)OCC#CI [3-iodo-2-propynyl butylcarbamate (IPBC)], the growth was determined as 98.3%.

As for `COc1ccc(CNS(=O)(=O)c2cc3nc(O)c(O)nc3cc2C)cc1` + CCCCNC(=O)OCC#CI [3-iodo-2-propynyl butylcarbamate (IPBC)], the growth was 112%.

`COc1ccc(-c2noc(CC(=O)N(CCC#N)c3ccccc3)n2)cc1` + CCCCNC(=O)OCC#CI [3-iodo-2-propynyl butylcarbamate (IPBC)]: the growth is 104%.

For the compound `CCOC(=O)\C1=C(/C)NC(=O)N(CC(=O)NC2=CC=C(F)C=C2F)C1C3=CC=CC=C3` (centres undefined) + CCCCNC(=O)OCC#CI [3-iodo-2-propynyl butylcarbamate (IPBC)], the growth is 112%.

As to `Cc1cccc(-c2csc(N)c2C(=O)OC(C)C)c1` + CCCCNC(=O)OCC#CI [3-iodo-2-propynyl butylcarbamate (IPBC)], the growth turned out to be 13%.

On to `CC(C)CNC(=O)CN1\N=N/C2=C(C1=O)C3=C(CC(CC3)C(C)(C)C)S2` (centres undefined) + CCCCNC(=O)OCC#CI [3-iodo-2-propynyl butylcarbamate (IPBC)], for which the growth stood at 92.5%.

For the compound `CCC(C(=O)N(CC)Cc1ccc2c(c1)OCCO2)c1ccccc1` (centres undefined) + CCCCNC(=O)OCC#CI [3-iodo-2-propynyl butylcarbamate (IPBC)], the growth came out at 97.7%.

The values are drawn from the supplement of paper PMC8007513.
